Assay results taken from article PMC4667432.
Results are given in words; binding and its absence hold for the method and conditions named. In cells and extracts the contact can be indirect.

Molecular target: T1, Dishevelled-1 (Dvl1), endogenous in mature rat hippocampal neurons (rat (endogenous in hippocampal neurons)) (UniProt Q9WVB9)
T1 sequence: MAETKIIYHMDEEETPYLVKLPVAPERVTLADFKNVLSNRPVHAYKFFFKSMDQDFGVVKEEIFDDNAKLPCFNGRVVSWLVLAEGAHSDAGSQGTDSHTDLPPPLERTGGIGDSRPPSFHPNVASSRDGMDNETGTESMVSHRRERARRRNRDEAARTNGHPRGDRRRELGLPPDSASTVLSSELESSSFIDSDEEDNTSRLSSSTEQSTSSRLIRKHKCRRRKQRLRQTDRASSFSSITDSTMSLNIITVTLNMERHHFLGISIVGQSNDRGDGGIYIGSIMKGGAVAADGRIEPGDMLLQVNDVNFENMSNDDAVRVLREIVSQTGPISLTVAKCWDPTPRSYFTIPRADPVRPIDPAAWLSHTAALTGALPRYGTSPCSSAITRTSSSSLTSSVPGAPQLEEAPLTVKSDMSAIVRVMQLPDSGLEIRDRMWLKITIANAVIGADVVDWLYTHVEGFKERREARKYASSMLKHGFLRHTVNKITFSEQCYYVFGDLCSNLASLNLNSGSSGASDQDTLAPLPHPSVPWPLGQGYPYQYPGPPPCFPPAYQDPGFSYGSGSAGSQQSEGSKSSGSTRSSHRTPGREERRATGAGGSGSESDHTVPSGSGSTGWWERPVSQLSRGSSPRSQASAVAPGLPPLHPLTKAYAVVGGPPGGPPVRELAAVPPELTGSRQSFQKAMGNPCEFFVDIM
Assay: co-IP; endogenous proteins; mature high-density hippocampal cultures lysed in Triton buffer (50 mM Hepes-NaOH, 0.1 M NaCl, 4 mM EGTA, 2 mM MgCl2, 0.5% Triton X-100); Dvl1 monoclonal antibody and protein G-Sepharose overnight at 4 °C; western blot; also after treatment of the neurons with Wnt7a (more Syt-1 with Dvl1) or Sfrps (less)

binding | Substance
no binding | Complexin, endogenous in mature rat hippocampal neurons
no binding | Munc-18, endogenous in mature rat hippocampal neurons
